The target in the test is IGF-I (UniProt P05019). Description: ligand blot with 125I-IGF-I (weaker than IGF-II).

The chains behind the UniProt entries cited, without tags or fusion partners. Residues count along the entry.
UniProt P05019, residues 49-118: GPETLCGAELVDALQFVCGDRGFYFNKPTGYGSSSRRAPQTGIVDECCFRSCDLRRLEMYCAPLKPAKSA

Results are given in words; binding and its absence hold for the method and conditions named. Some entries that bind do so weakly or less than the wild type.

B1: IGFBP-6 (protein)
chain: RCPGCGQGVQAGCPGGCVEEEDGGSPAEGCAEAEGCLRREGQECGVYTPNCAPGLQCHPPKDDEAPLRALLLGRGRCLPARAPAVAEENPKESKPQAGTARPQDVNRRDQQRNPGTSTTPSQPNSAGVQDTEMGPCRRHLDSVLQQLQTEVYRGAQTLYVPNCDHRGFYRKRQCRSSQGQRRGPCWCVDRMGKSLPGSPDGNGSSSCPTGSSG
Regarding B1, the binding entry was “binds”.

The values are drawn from US20050148509A1.
